The list shows only some results of the screen, not a fair sample: it is rich in T/C values a quarter to a half above the control, in often repeated tests (any T/C) and in doses without a T/C. Other doses and runs of a compound stand elsewhere. T/C: endpoint of the treated group in % of that of the vehicle group. Some entries give survivors of the animals treated and no T/C: the source files T/C as zero there, which appears to mark a toxic dose or a test without result, not a measured value. Some doses without a T/C left all or most animals alive at the check, yet need not have been tolerated: the source hardly ever lists a survival T/C far under the control, and the zero likely stands for such cases as well. Survivors were counted at the toxicity check, usually on the fifth day, unless a day is given; later deaths do not show. Schedule codes are those of the source, read here as Q, the interval in days (D) or hours (H), X, the number of doses. Some schedules carry Z or #; the key to these is not given. Where survival is the endpoint, the PubChem record calls one and a half times the control and up active, and a quarter to a half above the control has no call in these data; cut-offs in other NCI protocols can differ.
Test system: L1210 leukemia ip in BDF1 mice, survival T/C
Assay: NCI In Vivo Anticancer Drug Screen. Data for tumor model L1210 Leukemia (intraperitoneal) in B6D2F1 (BDF1) mice
Settings: T/C endpoint: mean survival time, higher T/C = longer survival
[1] = dose: 400.0 mg/kg/injection, schedule: Q01DX001 (ip), vehicle: saline
[2] = dose: 400.0 mg/kg/injection, schedule: Q01DX009 (ip), vehicle: saline
[3] = dose: 200.0 mg/kg/injection, schedule: Q01DX009 (ip), vehicle: Klucel (hydroxypropylcellulose) (HPC)
[4] = dose: 400.0 mg/kg/injection, schedule: Q01DX009 (ip), vehicle: Klucel (hydroxypropylcellulose) (HPC)
[5] = dose: 100.0 mg/kg/injection, schedule: Q04DX003 (ip), vehicle: Klucel (hydroxypropylcellulose) (HPC)
[6] = dose: 200.0 mg/kg/injection, schedule: Q04DX003 (ip), vehicle: Klucel (hydroxypropylcellulose) (HPC)
[7] = dose: 400.0 mg/kg/injection, schedule: Q04DX003 (ip), vehicle: Klucel (hydroxypropylcellulose) (HPC)

For `CC(C)c1ccc(/C=N/N=C(N)N)cc1`, the survivor count (dose: 30.0 mg/kg/injection, schedule: Q01DX Z (ip), vehicle: other) was 0 of 6, the survivor count (dose: 62.5 mg/kg/injection, schedule: Q01DX Z (ip), vehicle: saline) was 0 of 6 and the survivor count (dose: 125.0 mg/kg/injection, schedule: Q01DX Z (ip), vehicle: saline) was 0 of 6. For the same compound, the survivor count (dose: 250.0 mg/kg/injection, schedule: Q01DX Z (ip), vehicle: saline) was 0 of 6 and the survivor count (dose: 500.0 mg/kg/injection, schedule: Q01DX Z (ip), vehicle: saline) was 0 of 6.
In the case of `O=NN(CCCl)C(=O)NC1Cc2ccccc2C1`, the T/C (dose: 16.0 mg/kg/injection, schedule: Q01DX001 (ip), vehicle: other) is reported as 126 % of control, the T/C (dose: 31.0 mg/kg/injection, schedule: Q01DX001 (ip), vehicle: other) is reported as 141 % of control and the survivor count (dose: 750.0 mg/kg/injection, schedule: Q01DX001 (ip), vehicle: other) is reported as 5 of 6. The survivor count (dose: 1000.0 mg/kg/injection, schedule: Q01DX001 (ip), vehicle: other) was 2 of 6.
In the case of `Cc1csc[n+]1Cc1ccc([N+](=O)[O-])cc1`, the survivor count (dose: 200.0 mg/kg/injection, schedule: Q01DX001 (ip), vehicle: saline) is reported as 0 of 6 and the survivor count [1] is reported as 0 of 6.
In the case of `CCCCn1cccc1`, the survivor count (dose: 400.0 mg/kg/injection, schedule: Q04DX003 (ip), vehicle: saline with Tween-80) is reported as 0 of 6.
With `NC1CC2CCC1C2` (stereo not drawn) the survivor count (dose: 200.0 mg/kg/injection, schedule: Q04DX002 (ip), vehicle: saline) was 0 of 3.
`N#CCCN1CCCCCC1` was tested, and the survivor count (dose: 120.0 mg/kg/injection, schedule: Q04DX003 (ip), vehicle: saline with Tween-80) was 0 of 6.
`O=C1CC=C2C3CC4N(CCC45c4ccccc4N1C25)C/C3=C\CBr` (stereo not drawn) was tested, and the survivor count (dose: 18.75 mg/kg/injection, schedule: Q01DX001 (ip), vehicle: other) was 2 of 6 and the survivor count (dose: 37.5 mg/kg/injection, schedule: Q01DX001 (ip), vehicle: other) was 0 of 6.
For `O=NN(CCF)C(=O)NC12CC3CC(CC(C3)C1)C2`, the T/C (dose: 20.0 mg/kg/injection, schedule: Q01DX001 (ip), vehicle: carboxymethylcellulose (CMC)) was 128 % of control, the survivor count (dose: 375.0 mg/kg/injection, schedule: Q01DX001 (ip), vehicle: carboxymethylcellulose (CMC)) was 0 of 6 and the survivor count (dose: 500.0 mg/kg/injection, schedule: Q01DX001 (ip), vehicle: carboxymethylcellulose (CMC)) was 0 of 6. The survivor count (dose: 750.0 mg/kg/injection, schedule: Q01DX001 (ip), vehicle: carboxymethylcellulose (CMC)) was 0 of 6 and the survivor count (dose: 1000.0 mg/kg/injection, schedule: Q01DX001 (ip), vehicle: carboxymethylcellulose (CMC)) was 0 of 6.
`NC(Cc1ccc(O)c(I)c1)C(=O)O` (stereo not drawn) was tested, and the survivor count [2] was 0 of 6.
With `N#Cc1cscc1C#N` the survivor count [3] was 2 of 6 and the survivor count [4] was 0 of 6.
In the case of `C[P+](Cc1ccc([N+](=O)[O-])cc1)(c1ccccc1)c1ccccc1`, the survivor count (dose: 50.0 mg/kg/injection, schedule: Q01DX009 (ip), vehicle: Klucel (hydroxypropylcellulose) (HPC)) is reported as 5 of 6, the survivor count [5] is reported as 1 of 6 and the survivor count [6] is reported as 0 of 6. The survivor count [7] was 0 of 6.
With `CS(=O)c1cc2c(cc1[N+](=O)[O-])C(=O)c1ccccc1-2` (stereo not drawn) the survivor count (dose: 80.0 mg/kg/injection, schedule: Q01DX009 (ip), vehicle: Klucel (hydroxypropylcellulose) (HPC)) was 2 of 6, the survivor count [3] was 0 of 6 and the survivor count [6] was 2 of 6. For the same compound, the survivor count [4] was 0 of 6 and the survivor count [7] was 0 of 6.
With `C[C@H]1CN1C1=CC(=O)C(N2C[C@@H]2C)=CC1=O` the T/C (dose: 1.33 mg/kg/injection, schedule: Q04DX003 (ip), vehicle: other) was 127 % of control, the T/C (dose: 2.66 mg/kg/injection, schedule: Q04DX003 (ip), vehicle: saline with Tween-80) was 127 % of control and the T/C (dose: 3.0 mg/kg/injection, schedule: Q04DX003 (ip), vehicle: other) was 136 % of control. The T/C (dose: 3.13 mg/kg/injection, schedule: Q01DX009 (ip), vehicle: other) was 146 % of control, the T/C (dose: 3.5 mg/kg/injection, schedule: Q01DX009 (ip), vehicle: other) was 146 % of control and the T/C (dose: 4.0 mg/kg/injection, schedule: Q01DX001 (ip), vehicle: other) was 125 % of control. For the same compound, the T/C (dose: 4.0 mg/kg/injection, schedule: Q04DX003 (ip), vehicle: saline with Tween-80) was 139 % of control, the T/C (dose: 6.0 mg/kg/injection, schedule: Q04DX003 (ip), vehicle: saline with Tween-80) was 138 % of control and the survivor count (dose: 6.25 mg/kg/injection, schedule: Q01DX009 (ip), vehicle: other) was 6 of 6. For the same compound, the T/C (dose: 8.0 mg/kg/injection, schedule: Q01DX001 (ip), vehicle: other) was 131 % of control, the T/C (dose: 8.0 mg/kg/injection, schedule: Q01DX009 (ip), vehicle: other) was 126 % of control and the T/C (dose: 12.5 mg/kg/injection, schedule: Q04DX003 (ip), vehicle: saline with Tween-80) was 129 % of control. The T/C (dose: 16.0 mg/kg/injection, schedule: Q04DX003 (ip), vehicle: Klucel (hydroxypropylcellulose) (HPC)) was 125 % of control, the T/C (dose: 19.0 mg/kg/injection, schedule: Q01DX001 (ip), vehicle: other) was 129 % of control and the survivor count (dose: 38.0 mg/kg/injection, schedule: Q01DX001 (ip), vehicle: other) was 0 of 6. For the same compound, the survivor count (dose: 50.0 mg/kg/injection, schedule: Q04DX003 (ip), vehicle: saline with Tween-80) was 5 of 6, the survivor count (dose: 75.0 mg/kg/injection, schedule: Q01DX001 (ip), vehicle: other) was 1 of 6 and the survivor count (dose: 150.0 mg/kg/injection, schedule: Q01DX001 (ip), vehicle: other) was 0 of 6. The survivor count (dose: 300.0 mg/kg/injection, schedule: Q01DX001 (ip), vehicle: other) was 0 of 6.
For `CCN1CC=CCC1`, the survivor count (dose: 200.0 mg/kg/injection, schedule: Q01DX009 (ip), vehicle: saline) was 0 of 6, the survivor count (dose: 200.0 mg/kg/injection, schedule: Q04DX003 (ip), vehicle: saline) was 1 of 6 and the survivor count (dose: 400.0 mg/kg/injection, schedule: Q04DX003 (ip), vehicle: saline) was 0 of 6.
For `Nc1nc(N)c2ncn(C3OC(CO)C(O)C3O)c2n1` (stereo not drawn), the survivor count [1] was 3 of 6.
With `COc1cc([N+](=O)[O-])ccc1NC(=O)Oc1ccc(F)cc1Cl` the survivor count [4] was 2 of 6.
For `Nc1ccccc1SC(CC(=O)c1ccccc1)c1ccc([N+](=O)[O-])cc1` (stereo not drawn), the survivor count (dose: 200.0 mg/kg/injection, schedule: Q01DX005 (ip), vehicle: Klucel (hydroxypropylcellulose) (HPC)) was 3 of 3.
In the case of `Cc1cc2oc(=O)cc(C)c2c(=O)o1`, the survivor count (dose: 400.0 mg/kg/injection, schedule: Q01DX001 (ip), vehicle: carboxymethylcellulose (CMC)) is reported as 4 of 4.
`CC1(C)c2cc3ccc(Cl)cc3nc2-c2ccccc2C1(C)O` (stereo not drawn) was tested, and the survivor count [4] was 6 of 6.
`CCCCCSc1nc(N)nc2nc[nH]c12` was tested, and the T/C (dose: 100.0 mg/kg/injection, schedule: Q01DX Z (ip), vehicle: methylcellulose (MC)) was 148 % of control, the survivor count [2] was 3 of 6 and the survivor count (dose: 600.0 mg/kg/injection, schedule: Q01DX009 (ip), vehicle: saline) was 2 of 6. For the same compound, the survivor count (dose: 800.0 mg/kg/injection, schedule: Q01DX009 (ip), vehicle: saline) was 1 of 6.
With `[Cl][Hg][CH2]CC1CC=CCC1` (stereo not drawn) the survivor count (dose: 25.0 mg/kg/injection, schedule: Q04DX003 (ip), vehicle: Klucel (hydroxypropylcellulose) (HPC)) was 4 of 6, the survivor count [5] was 0 of 6 and the survivor count [6] was 0 of 6. For the same compound, the survivor count [7] was 0 of 6.
